Experimental data published in the supplement of paper PMC10849652.
The other results are listed elsewhere or left out.

Amino acid sequences for entries named in this document (tags omitted). A change or cut given only in a name is not applied to a line headed by its entry.
UniProt Q9NVW2: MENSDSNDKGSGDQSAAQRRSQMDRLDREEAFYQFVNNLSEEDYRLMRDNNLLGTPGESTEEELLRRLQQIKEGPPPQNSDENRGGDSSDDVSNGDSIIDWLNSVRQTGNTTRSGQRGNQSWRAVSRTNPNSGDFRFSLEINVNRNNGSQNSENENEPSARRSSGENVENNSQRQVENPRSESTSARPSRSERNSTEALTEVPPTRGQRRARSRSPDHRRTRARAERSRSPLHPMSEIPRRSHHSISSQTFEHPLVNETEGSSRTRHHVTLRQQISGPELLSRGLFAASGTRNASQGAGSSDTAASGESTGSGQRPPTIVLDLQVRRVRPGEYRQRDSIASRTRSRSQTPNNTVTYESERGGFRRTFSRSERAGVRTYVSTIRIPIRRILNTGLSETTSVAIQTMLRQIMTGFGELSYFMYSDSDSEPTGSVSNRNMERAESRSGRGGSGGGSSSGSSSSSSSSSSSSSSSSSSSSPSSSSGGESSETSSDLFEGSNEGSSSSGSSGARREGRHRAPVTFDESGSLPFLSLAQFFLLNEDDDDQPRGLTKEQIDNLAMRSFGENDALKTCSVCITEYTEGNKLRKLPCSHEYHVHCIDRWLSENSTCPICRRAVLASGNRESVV
UniProt Q8IUC4: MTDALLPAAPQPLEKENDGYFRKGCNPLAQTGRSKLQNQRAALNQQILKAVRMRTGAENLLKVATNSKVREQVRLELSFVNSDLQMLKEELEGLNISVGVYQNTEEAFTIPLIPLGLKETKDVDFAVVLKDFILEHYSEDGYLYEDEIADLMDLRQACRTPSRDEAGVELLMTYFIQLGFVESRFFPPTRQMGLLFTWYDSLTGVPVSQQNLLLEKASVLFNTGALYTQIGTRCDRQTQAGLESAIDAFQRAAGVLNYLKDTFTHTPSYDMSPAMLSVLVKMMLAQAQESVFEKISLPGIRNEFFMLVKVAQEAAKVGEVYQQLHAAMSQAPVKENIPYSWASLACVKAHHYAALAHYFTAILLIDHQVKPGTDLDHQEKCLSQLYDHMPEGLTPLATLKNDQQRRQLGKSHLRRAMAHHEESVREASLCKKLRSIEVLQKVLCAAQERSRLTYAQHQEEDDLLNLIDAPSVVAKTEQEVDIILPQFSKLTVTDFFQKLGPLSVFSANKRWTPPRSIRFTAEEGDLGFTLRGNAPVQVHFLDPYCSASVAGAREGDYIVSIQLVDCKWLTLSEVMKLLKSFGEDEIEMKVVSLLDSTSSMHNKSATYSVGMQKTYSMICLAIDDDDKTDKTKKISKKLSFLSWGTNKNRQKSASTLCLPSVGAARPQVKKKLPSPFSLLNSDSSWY
UniProt Q9H4P4: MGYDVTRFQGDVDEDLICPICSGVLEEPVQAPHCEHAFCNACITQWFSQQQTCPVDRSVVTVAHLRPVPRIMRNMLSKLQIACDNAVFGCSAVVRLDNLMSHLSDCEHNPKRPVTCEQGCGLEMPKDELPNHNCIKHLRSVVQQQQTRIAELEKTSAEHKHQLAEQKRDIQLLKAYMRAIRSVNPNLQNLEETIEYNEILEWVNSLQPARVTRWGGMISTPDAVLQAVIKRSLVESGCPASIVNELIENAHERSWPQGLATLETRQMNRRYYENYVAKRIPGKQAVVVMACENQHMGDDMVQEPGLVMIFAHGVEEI
UniProt O76064: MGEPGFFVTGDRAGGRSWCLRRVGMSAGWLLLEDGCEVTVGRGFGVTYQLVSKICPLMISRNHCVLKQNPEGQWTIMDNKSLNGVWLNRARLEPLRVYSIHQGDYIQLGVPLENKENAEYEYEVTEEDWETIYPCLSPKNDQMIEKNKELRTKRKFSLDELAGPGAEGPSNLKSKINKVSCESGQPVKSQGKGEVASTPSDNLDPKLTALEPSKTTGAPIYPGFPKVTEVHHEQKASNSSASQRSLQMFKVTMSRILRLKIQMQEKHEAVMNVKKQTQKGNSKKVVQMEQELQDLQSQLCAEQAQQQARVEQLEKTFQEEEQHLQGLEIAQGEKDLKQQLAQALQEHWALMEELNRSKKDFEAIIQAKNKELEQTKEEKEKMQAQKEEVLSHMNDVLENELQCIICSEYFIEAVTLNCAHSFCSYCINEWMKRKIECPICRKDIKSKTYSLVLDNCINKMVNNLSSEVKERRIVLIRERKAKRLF
UniProt Q9H6W3: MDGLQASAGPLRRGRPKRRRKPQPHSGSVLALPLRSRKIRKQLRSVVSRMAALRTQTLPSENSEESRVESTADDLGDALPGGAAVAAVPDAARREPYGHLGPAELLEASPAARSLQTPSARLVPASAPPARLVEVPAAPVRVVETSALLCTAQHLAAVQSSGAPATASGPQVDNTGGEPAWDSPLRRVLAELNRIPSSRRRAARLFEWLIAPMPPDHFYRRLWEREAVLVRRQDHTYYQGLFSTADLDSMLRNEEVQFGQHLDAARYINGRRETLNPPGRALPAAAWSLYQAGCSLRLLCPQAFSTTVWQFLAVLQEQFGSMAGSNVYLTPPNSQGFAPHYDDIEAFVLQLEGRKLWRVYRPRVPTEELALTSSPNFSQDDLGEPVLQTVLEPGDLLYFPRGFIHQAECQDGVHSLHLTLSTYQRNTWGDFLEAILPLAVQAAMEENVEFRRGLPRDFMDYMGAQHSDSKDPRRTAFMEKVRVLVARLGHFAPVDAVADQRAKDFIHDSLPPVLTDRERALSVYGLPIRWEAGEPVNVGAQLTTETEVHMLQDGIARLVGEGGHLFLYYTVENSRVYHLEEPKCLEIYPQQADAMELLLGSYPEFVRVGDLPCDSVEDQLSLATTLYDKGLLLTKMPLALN
UniProt Q9Y4L5, whole entry, looked up: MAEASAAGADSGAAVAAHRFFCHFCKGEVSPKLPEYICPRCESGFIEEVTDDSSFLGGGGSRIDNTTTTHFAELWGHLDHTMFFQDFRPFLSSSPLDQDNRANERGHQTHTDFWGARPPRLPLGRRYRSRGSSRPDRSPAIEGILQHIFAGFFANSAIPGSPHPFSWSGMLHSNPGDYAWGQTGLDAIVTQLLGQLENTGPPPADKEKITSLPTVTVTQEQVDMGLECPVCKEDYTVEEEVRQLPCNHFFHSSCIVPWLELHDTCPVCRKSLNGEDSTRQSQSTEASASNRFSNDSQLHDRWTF
UniProt Q13129: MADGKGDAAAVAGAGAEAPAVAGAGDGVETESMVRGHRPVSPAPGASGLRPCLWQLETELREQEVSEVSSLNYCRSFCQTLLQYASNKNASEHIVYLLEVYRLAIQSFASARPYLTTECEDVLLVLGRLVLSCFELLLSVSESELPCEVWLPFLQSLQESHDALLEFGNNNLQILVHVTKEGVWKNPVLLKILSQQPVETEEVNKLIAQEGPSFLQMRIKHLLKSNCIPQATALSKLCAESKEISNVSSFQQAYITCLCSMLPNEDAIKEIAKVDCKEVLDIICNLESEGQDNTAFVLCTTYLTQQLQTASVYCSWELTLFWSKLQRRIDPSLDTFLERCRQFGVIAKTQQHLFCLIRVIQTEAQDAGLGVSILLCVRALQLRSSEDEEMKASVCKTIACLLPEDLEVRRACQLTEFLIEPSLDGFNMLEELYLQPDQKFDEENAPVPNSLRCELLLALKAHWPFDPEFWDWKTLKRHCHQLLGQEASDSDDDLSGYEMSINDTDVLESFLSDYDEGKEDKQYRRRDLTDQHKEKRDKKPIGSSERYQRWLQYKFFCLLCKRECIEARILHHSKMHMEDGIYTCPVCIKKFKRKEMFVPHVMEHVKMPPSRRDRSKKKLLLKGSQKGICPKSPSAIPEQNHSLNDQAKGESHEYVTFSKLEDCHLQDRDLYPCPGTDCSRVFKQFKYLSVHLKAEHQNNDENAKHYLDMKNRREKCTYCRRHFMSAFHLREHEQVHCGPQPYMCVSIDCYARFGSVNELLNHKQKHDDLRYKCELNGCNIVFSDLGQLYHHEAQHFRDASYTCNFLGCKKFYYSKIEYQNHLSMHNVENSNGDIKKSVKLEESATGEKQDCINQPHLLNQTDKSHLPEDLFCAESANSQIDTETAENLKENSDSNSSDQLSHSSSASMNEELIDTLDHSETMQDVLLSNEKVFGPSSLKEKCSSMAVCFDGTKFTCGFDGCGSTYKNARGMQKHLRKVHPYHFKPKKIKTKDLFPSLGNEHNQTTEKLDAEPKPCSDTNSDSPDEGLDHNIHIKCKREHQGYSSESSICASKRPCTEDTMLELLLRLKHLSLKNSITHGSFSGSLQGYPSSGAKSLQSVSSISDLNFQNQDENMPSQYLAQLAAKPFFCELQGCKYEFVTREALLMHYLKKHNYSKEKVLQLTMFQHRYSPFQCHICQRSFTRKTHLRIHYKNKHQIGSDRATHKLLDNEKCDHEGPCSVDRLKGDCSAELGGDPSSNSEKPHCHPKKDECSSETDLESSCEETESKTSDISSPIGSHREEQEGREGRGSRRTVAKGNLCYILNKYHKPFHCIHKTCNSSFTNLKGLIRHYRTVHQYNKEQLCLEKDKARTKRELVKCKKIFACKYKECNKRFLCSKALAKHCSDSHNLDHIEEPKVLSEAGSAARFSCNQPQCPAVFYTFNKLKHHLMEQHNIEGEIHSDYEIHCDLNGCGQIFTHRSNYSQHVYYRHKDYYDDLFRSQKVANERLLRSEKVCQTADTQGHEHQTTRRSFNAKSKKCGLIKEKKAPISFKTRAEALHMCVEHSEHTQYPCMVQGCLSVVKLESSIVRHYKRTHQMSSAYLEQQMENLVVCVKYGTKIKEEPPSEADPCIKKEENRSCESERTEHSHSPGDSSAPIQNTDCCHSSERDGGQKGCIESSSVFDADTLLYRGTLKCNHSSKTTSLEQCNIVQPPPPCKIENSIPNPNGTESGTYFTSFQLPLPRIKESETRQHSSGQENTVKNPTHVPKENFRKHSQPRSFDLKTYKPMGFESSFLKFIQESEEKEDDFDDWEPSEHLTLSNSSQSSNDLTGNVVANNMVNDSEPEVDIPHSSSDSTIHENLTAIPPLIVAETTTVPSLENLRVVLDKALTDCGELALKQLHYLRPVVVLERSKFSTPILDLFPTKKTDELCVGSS
UniProt Q96E14: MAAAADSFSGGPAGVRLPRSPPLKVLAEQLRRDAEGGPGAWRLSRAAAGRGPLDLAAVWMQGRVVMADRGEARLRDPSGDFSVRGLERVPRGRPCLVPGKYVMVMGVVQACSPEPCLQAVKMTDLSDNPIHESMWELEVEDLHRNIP
UniProt Q7L0Q8: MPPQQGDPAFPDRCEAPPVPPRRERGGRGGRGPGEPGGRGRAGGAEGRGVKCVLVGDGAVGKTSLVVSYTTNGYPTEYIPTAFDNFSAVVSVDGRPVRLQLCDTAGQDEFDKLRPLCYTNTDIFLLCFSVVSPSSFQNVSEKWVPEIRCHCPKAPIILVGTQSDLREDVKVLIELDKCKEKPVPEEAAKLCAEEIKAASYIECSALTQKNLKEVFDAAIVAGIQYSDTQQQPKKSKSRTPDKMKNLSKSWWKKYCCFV
UniProt Q8WVD3: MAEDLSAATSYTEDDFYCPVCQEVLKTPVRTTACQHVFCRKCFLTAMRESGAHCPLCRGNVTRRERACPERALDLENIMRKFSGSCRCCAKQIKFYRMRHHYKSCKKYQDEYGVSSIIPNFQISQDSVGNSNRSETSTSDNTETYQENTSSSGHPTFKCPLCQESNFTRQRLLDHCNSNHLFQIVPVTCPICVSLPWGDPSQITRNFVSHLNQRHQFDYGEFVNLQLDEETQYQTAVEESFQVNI
UniProt P60602: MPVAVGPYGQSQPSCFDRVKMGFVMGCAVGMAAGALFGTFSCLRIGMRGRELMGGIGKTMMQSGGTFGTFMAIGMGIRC
UniProt P78317: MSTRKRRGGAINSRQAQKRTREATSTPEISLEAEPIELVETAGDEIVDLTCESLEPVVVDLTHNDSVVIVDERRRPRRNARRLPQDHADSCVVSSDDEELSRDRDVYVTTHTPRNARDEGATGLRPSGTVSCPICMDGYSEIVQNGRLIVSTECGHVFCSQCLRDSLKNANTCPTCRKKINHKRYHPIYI
UniProt Q9Y225: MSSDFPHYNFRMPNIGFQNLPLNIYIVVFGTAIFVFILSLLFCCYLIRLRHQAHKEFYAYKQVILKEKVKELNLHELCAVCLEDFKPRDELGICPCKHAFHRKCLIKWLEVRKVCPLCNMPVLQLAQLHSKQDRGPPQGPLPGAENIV

Assays:
Assay in all cases: log2 fold change, soluble protein after heating vs DMSO (PISA); higher = thermal stabilisation; K562 lysate, 10 uM; active = over 0.2 and 3.5 SD of the protein, either way, in both replicates (recomputed)
pictilisib = compound: CS(=O)(=O)N1CCN(Cc2cc3nc(-c4cccc5[nH]ncc45)nc(N4CCOCC4)c3s2)CC1 [pictilisib]
In short: (§1)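 Thermal stability, expressed as log-two fold change relative to solvent controls, is given from duplicates. Crude K562 extract in PBS pH 7.4 with 1 mM MgCl2, at 1 mg/mL protein, was treated with 10 μM compound for 30 min and heated in aliquots for 3 min across 48°C-58°C. After pooling, adjustment to 0.5% NP-40 at 4°C and centrifugation at 21,000xg for 90 min, supernatant protein was measured by TMTpro 16plex LC-MS/MS with channel sums equalised.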

crizotinib = compound: C[C@@H](Oc1cc(-c2cnn(C3CCNCC3)c2)cnc1N)c1c(Cl)ccc(F)c1Cl [crizotinib]
In short: as §1

doramapimod = compound: Cc1ccc(-n2nc(C(C)(C)C)cc2NC(=O)Nc2ccc(OCCN3CCOCC3)c3ccccc23)cc1 [doramapimod]
In short: as §1

bafetinib = compound: Cc1ccc(NC(=O)c2ccc(CN3CC[C@H](N(C)C)C3)c(C(F)(F)F)c2)cc1Nc1nccc(-c2cncnc2)n1 [bafetinib]
In short: as §1

quisinostat = compound: Cn1cc(CNCC2CCN(c3ncc(C(=O)NO)cn3)CC2)c2ccccc21 [quisinostat]
In short: as §1

[1] = compound: NC(=O)Nc1cc(-c2cccc(F)c2)sc1C(=O)N[C@H]1CCCNC1
In short: as §1

lapatinib = compound: CS(=O)(=O)CCNCc1ccc(-c2ccc3ncnc(Nc4ccc(OCc5cccc(F)c5)c(Cl)c4)c3c2)o1 [lapatinib]
In short: as §1

tozasertib = compound: Cc1cc(Nc2cc(N3CCN(C)CC3)nc(Sc3ccc(NC(=O)C4CC4)cc3)n2)n[nH]1 [tozasertib]
In short: as §1

nilotinib = compound: Cc1cn(-c2cc(NC(=O)c3ccc(C)c(Nc4nccc(-c5cccnc5)n4)c3)cc(C(F)(F)F)c2)cn1 [nilotinib]
In short: as §1

[2] = compound: Cc1nc(Nc2n[nH]c3c2CN(C(=O)N[C@H](CN(C)C)c2ccccc2)C3(C)C)c2sccc2n1
In short: as §1

[3] = compound: Cc1ncc(-c2ccnc(Nc3ccc(S(C)(=O)=O)cc3)n2)n1C(C)C
In short: as §1

tipifarnib = compound: Cn1cncc1[C@@](N)(c1ccc(Cl)cc1)c1ccc2c(c1)c(-c1cccc(Cl)c1)cc(=O)n2C [tipifarnib]
In short: as §1

[4] = compound: NC(=O)c1cnc(N[C@@H]2CCCC[C@@H]2N)nc1Nc1cccc(-n2nccn2)c1
In short: as §1

[5] = compound: NC1(c2ccc(-c3nc4ccn5c(=O)[nH]nc5c4cc3-c3ccccc3)cc2)CCC1
In short: as §1

duvelisib = compound: C[C@H](Nc1ncnc2nc[nH]c12)c1cc2cccc(Cl)c2c(=O)n1-c1ccccc1 [duvelisib]
In short: as §1

dasatinib = compound: Cc1nc(Nc2ncc(C(=O)Nc3c(C)cccc3Cl)s2)cc(N2CCN(CCO)CC2)n1 [dasatinib]
In short: as §1

[6] = compound: Cn1cc(-c2ccc3c(c2)CCN3C(=O)Cc2cccc(C(F)(F)F)c2)c2c(N)ncnc21
In short: as §1

[7] = compound: C[C@H](C1=CC=C(C=C1)C(=O)NC2=C3C=CNC3=NC=C2)N
In short: as §1

gandotinib = compound: Cc1cc(Nc2cc(CN3CCOCC3)c3nc(C)c(Cc4ccc(Cl)cc4F)n3n2)n[nH]1 [gandotinib]
In short: as §1

[8] = compound: Cc1cccc(CC(=O)N2CCc3c2ccc(-c2cn(C)c4ncnc(N)c24)c3F)n1
In short: as §1

Measured: log2 fold change

RLIM (UniProt Q9NVW2)
inactive: pictilisib -0.053 | crizotinib -0.323 | doramapimod -0.044 | bafetinib -0.193 | [1] 0.233
active: quisinostat -0.748

RHPN2 (UniProt Q8IUC4)
inactive: lapatinib -0.055 | crizotinib -0.066 | tozasertib -0.154 | doramapimod 0.059 | nilotinib -0.154 | [2] 0.057 | [3] -0.221 | quisinostat -0.172 | tipifarnib 0.159 | [1] -0.045 | [4] -0.082 | [5] -0.152

RPL22L1 (UniProt Q6P5R6)
inactive: pictilisib -0.066 | duvelisib 0.024 | tozasertib -1.08 | bafetinib -0.186 | dasatinib -1.13 | [6] 0.347

RNF41 (UniProt Q9H4P4)
inactive: crizotinib -0.01 | [7] -0.243 | duvelisib -0.025 | gandotinib -0.201 | doramapimod 0.045 | [8] -0.177 | nilotinib 0.139 | [2] 0.26 | dasatinib -0.027 | [3] -0.189 | [6] 0.018 | quisinostat 0.014 | tipifarnib -0.156 | [1] -0.005 | [5] -0.095

RNF8 (UniProt O76064)
inactive: pictilisib 0.031 | crizotinib -0.021 | [7] -0.007 | duvelisib -0.043 | gandotinib 0.055 | tozasertib 0.206 | doramapimod 0.025 | bafetinib -0.017 | [8] 0.002 | nilotinib -0.016 | [2] -0.069 | dasatinib -0.03 | [3] -0.007 | [6] -0.106 | quisinostat 0.012 | tipifarnib 0.067 | [1] 0.106 | [5] -0.04

RIOX1 (UniProt Q9H6W3)
inactive: lapatinib -0.035 | crizotinib 0.007 | [7] 0.083 | duvelisib 0.008 | gandotinib -0.026 | tozasertib -0.026 | doramapimod -0.028 | [8] -0.121 | nilotinib 0.085 | [2] -0.037 | dasatinib -0.088 | [3] 0 | [6] 0.012 | quisinostat -0.029 | tipifarnib 0.223 | [1] 0.05 | [4] 0.074 | [5] -0.04

RNF115 (UniProt Q9Y4L5)
inactive: crizotinib -0.018 | [7] -0.164 | gandotinib 0.059 | doramapimod -0.039 | [8] 0.041 | nilotinib -0.29 | [2] 0.131 | [3] 0.066 | quisinostat 0.061 | tipifarnib -0.267 | [1] -0.038

RLF (UniProt Q13129)
inactive: lapatinib -0.024 | crizotinib -0.062 | [7] 0.01 | duvelisib 0.163 | gandotinib -0.009 | doramapimod -0.057 | [8] 0.021 | nilotinib -0.164 | [2] -0.131 | dasatinib 0.108 | [3] -0.037 | [6] -0.132 | quisinostat 0.107 | tipifarnib -0.093 | [1] 0.032 | [4] 0.049

RMI2 (UniProt Q96E14)
inactive: crizotinib 0.005 | duvelisib 0.013 | tozasertib -0.068 | doramapimod -0.012 | dasatinib -0.049 | [6] -0.044 | quisinostat -0.051 | [1] 0.021 | [5] 0.082

RPGR (UniProt Q92834)
inactive: pictilisib -0.051 | crizotinib 0.061 | doramapimod 0.036 | bafetinib -0.106 | quisinostat 0.031 | [1] -0.003

RHOU (UniProt Q7L0Q8)
inactive: lapatinib -0.05 | crizotinib -0.002 | duvelisib 0.024 | gandotinib -0.031 | tozasertib 0.113 | doramapimod 0.038 | [8] 0.056 | nilotinib -0.032 | [2] -0.028 | dasatinib -0.004 | [3] 0.114 | [6] 0.145 | quisinostat -0.053 | tipifarnib 0.12 | [1] 0.035 | [4] -0.045 | [5] 0.033
active: [7] -0.323

RNF138 (UniProt Q8WVD3)
inactive: pictilisib 0.042 | crizotinib -0.094 | [7] -0.044 | duvelisib -0.058 | gandotinib -0.055 | tozasertib -0.016 | doramapimod 0.037 | bafetinib 0.016 | [8] 0.057 | nilotinib -0.05 | [2] 0.016 | dasatinib -0.057 | [3] -0.044 | [6] 0.015 | quisinostat 0.084 | tipifarnib 0.009 | [1] -0.071

RPL10, A0A087WV22
inactive: pictilisib 0.928 | crizotinib 0.031 | duvelisib 0.13 | doramapimod 0.049 | bafetinib 0.531 | dasatinib -0.205 | [6] 0.053 | quisinostat 0.059 | [1] -0.016 | [5] 0.2

ROMO1 (UniProt P60602)
inactive: lapatinib 0.061 | crizotinib -0.061 | duvelisib -0.097 | tozasertib 0.094 | doramapimod 0.003 | nilotinib -0.083 | [2] -0.021 | dasatinib -0.013 | [3] 0.11 | [6] -0.037 | quisinostat -0.223 | tipifarnib 0.098 | [1] 0.003 | [4] 0.01 | [5] 0.046

RNF4 (UniProt P78317)
inactive: pictilisib -0.037 | crizotinib -0.133 | [7] -0.037 | gandotinib 0.083 | tozasertib -0.192 | doramapimod 0.189 | bafetinib -0.005 | [8] 0.037 | nilotinib 0.015 | [2] 0.158 | [3] 0.042 | quisinostat 0.198 | tipifarnib -0.281 | [1] -0.103

RNF24 isoform 2 (UniProt Q9Y225)
inactive: pictilisib -0.089 | crizotinib -0.074 | [7] -0.173 | gandotinib 0.117 | doramapimod -0.093 | bafetinib -0.477 | [8] 0.028 | nilotinib 0.105 | [2] -0.028 | [3] 0.123 | quisinostat -0.139 | tipifarnib 0.034 | [1] -0.075 | [5] 0.051

Retrieved one by one from the entries so far, 2 records:
RPL10, A0A087WV22
inactive: pictilisib 0.928 | crizotinib 0.031 | duvelisib 0.13 | doramapimod 0.049 | bafetinib 0.531 | dasatinib -0.205 | [6] 0.053 | quisinostat 0.059 | [1] -0.016 | [5] 0.2

RNF138 (UniProt Q8WVD3)
inactive: pictilisib 0.042 | crizotinib -0.094 | [7] -0.044 | duvelisib -0.058 | gandotinib -0.055 | tozasertib -0.016 | doramapimod 0.037 | bafetinib 0.016 | [8] 0.057 | nilotinib -0.05 | [2] 0.016 | dasatinib -0.057 | [3] -0.044 | [6] 0.015 | quisinostat 0.084 | tipifarnib 0.009 | [1] -0.071
